# Experimental data: PubChem BioAssay AID493014 (National Center for Advancing Translational Sciences (NCATS), 2011)
# This is one part of the list. These are further read-outs of the screen, such as a control signal, another cell line or another target. No call is given for them. The list favours compounds with an active or inconclusive main result. Words in brackets tell the shape of the fitted curve; partial curves, single points and poor fits give uncertain potencies.
# Assay: qHTS Assay to Find Inhibitors of Chronic Active B-Cell Receptor Signaling
# Settings: ABC-DLBCL IkBa-CBG/CBR reporter, luminescence ratio (green luciferase fused to IkBa over red control in TMD8 lymphoma cells), 4 h; measured here: CBR red luminescence, cell number
# Outline: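 Doxycycline induced both beetle luciferases in TMD8 lymphoma cells; IKK-driven degradation limits the IkappaBalpha-fused green signal, while red luminescence normalises for cell number and nonspecific effects. Compounds tested up to 46 uM, 4 hrs.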
row,Compound,AC50
1,COc1cc(/C=N/NC(=O)c2ccncc2)ccc1O,"17.8 µM [falling, partial curve, poor fit]"
2,CN(C(=O)c1ccc(NC(=O)C2CC=CCC2C(=O)O)cc1)c1ccccc1 (configuration not stated),"2.06 µM [rising, partial curve, poor fit]"
3,CC1CN(Cc2cn(C)nc2-c2ccc(Oc3ccccc3)cc2)CCN1C (configuration not stated),"35.5 µM [falling, single point]"
4,COc1cc([N+](=O)[O-])ccc1NC(=O)Cc1ccc(F)cc1,"23.1 µM [rising, partial curve, poor fit]"
5,CC[C@H]1OC(=O)C[C@@H](O)[C@H](C)[C@@H](O[C@@H]2O[C@H](C)C[C@H](N(C)C)[C@H]2O)[C@@H](CC=O)C[C@@H](C)C(=O)C=C[C@]2(C)O[C@H]2[C@@H]1C,"12.6 µM [falling, partial curve, poor fit]"
6,Nn1cc(-c2ccccc2)nc1SCC(=O)N1CCN(S(=O)(=O)c2ccc3ccccc3c2)CC1,"1.03 µM [rising, full curve, poor fit]"
7,C/C(=N\NC(=O)c1ccn(C)n1)c1ccc(NC(=O)c2cccc(F)c2)cc1,"11.2 µM [falling, partial curve]"
8,COCC(C)NC(=O)c1noc2c1CCc1cc(OC)ccc1-2 (configuration not stated),"16.4 µM [falling, partial curve]"
9,O=C(O)CC1(CC(=O)Nc2ccc(C(F)(F)F)cc2)CCCC1,"0.112 µM [rising, full curve, poor fit]"
10,CCC(C)(C)NC(=O)C(c1cccn1C)N(Cc1ccccc1)C(=O)Cn1nnc2ccccc21 (configuration not stated),"7.94 µM [rising, partial curve, poor fit]"
11,COc1cc(C(=O)OCC(=O)N2CCCC2)cc2c1OCCO2,"18.4 µM [falling, partial curve, poor fit]"
12,COc1cccc(C2=CC(c3cccc(OC)c3OC(F)F)n3nnnc3N2)c1 (configuration not stated),"13 µM [falling, single point]"
13,Cc1ccccc1CN1CCN(c2nc3ccccc3s2)CC1,"7.08 µM [rising, partial curve]"
14,COc1ccc(CNC(=O)COC(=O)c2n[nH]c3ccccc23)cc1,"10 µM [falling, partial curve]"
15,Cc1c(CCOC(=O)C23CC4CC(CC(C)(C4)C2)C3)sc[n+]1CC(=O)c1ccccc1,"3.16 µM [rising, partial curve]"
16,CCOC(=O)C1CCN(Cc2ccc(OCc3ccccc3)cc2)CC1,"35.5 µM [rising, single point]"

row,Compound,AC50
1,CCOC(=O)N1CCN(c2ccc(S(=O)(=O)N3CCOCC3)cc2[N+](=O)[O-])CC1,"0.731 µM [rising, partial curve, poor fit]"
2,COc1ccccc1/C(C)=N/Oc1cc(N)cc([N+](=O)[O-])c1,"29.1 µM [rising, single point]"
3,CCOc1cc(/C=N\NC(=O)OC(C)(C)C)ccc1OC(=O)c1ccco1,"5.62 µM [rising, single point]"
4,NC(=O)c1ccc(N=Nc2c(-c3ccccc3)[nH]n(-c3ccccc3)c2=O)cc1,"3.55 µM [falling, partial curve]"
5,CCC(=O)c1ccccc1OCCCN1CCC(Cc2ccccc2)CC1,"6.31 µM [falling, partial curve]"
6,COc1cc(OC)c2c(-c3cccc(-c4ccc(C(F)(F)F)cc4)c3)cc(=O)oc2c1,"18.4 µM [rising, partial curve, poor fit]"
7,CN(C)CCC(c1ccc(Br)cc1)c1ccccn1 (configuration not stated),"10 µM [falling, partial curve]"
8,CCN1CCN(CCCNC(=O)c2cc3c(=O)[nH]c4ccccc4c3s2)CC1,"29.1 µM [falling, single point]"
9,CN1C(=O)/C(=C/c2cn(CC(=O)N3CCCCC3)c3ccccc23)NC1=S,"3.16 µM [falling, full curve]"
10,Cc1ccc2nc(SCC(=O)Nc3c(C)n(C)n(-c4ccccc4)c3=O)[nH]c2c1,"1.84 µM [falling, full curve, poor fit]"
11,COc1cc2c(cc1OC)C(C)N(C(=O)c1cc3c(=O)oc4ccc(C)cc4c3s1)CC2 (configuration not stated),"0.651 µM [rising, partial curve, poor fit]"
12,Cc1ccc(-c2nc(CSc3nc4ccccc4c(=O)n3CCO)cs2)cc1,"23.1 µM [falling, single point]"
13,CC1CC(C)(C)NC(=S)N1CCCC(=O)Nc1ccc(F)c(F)c1 (configuration not stated),"10 µM [rising, partial curve, poor fit]"
14,Cc1cc(C)c(S(=O)(=O)N2CCCCC2CCNC(=O)C(=O)NCc2ccccn2)c(C)c1 (configuration not stated),"2.91 µM [falling, full curve]"
15,COc1cc(/C=N\NC(=O)c2ccc(-c3ccccc3)cc2)cc(OC)c1O,"25.1 µM [falling, single point]"
16,O=C(N/N=C/C(Cl)=C/c1ccc([N+](=O)[O-])cc1)C(=O)Nc1cccc(C(=O)O)c1,"7.08 µM [falling, partial curve, poor fit]"

# Looked up above.
# For AC50, `CN(C(=O)c1ccc(NC(=O)C2CC=CCC2C(=O)O)cc1)c1ccccc1` (configuration not stated) shows 2.06 µM [rising, partial curve, poor fit]
# For AC50, `CCOC(=O)N1CCN(c2ccc(S(=O)(=O)N3CCOCC3)cc2[N+](=O)[O-])CC1` shows 0.731 µM [rising, partial curve, poor fit]
